In patent publication US7270968B2, “PTH analogs for renal osteodystrophy and related uses” (The General Hospital Corporation, priority 2000, dated 2007):
At least one structure is not confirmed: it was looked up by name or label, or the drawing left a doubt.

System: CPTHR
Assay: Downregulation of CPTHR binding in C59 cells after pretreatment
Assay type: cell-based, mouse
Details: exposure 24 hr
Protocol: Specific binding, is expressed as mean ± standard deviation of triplicates. * p<0.05, ** P<0.01.
For binding experiments, cells (100,000 cells/ml) were plated in 24-well dishes and cultured at 33° C. for 7 to 14 days. […] Receptor number was ascertained by Scatchard analysis, using [Tyr^34]hPTH-(19-84) or hPTH(1-84) as competing ligand. […] In some experiments, cells were washed with acidic buffer (50 mM glycine, 150 mM NaCl, pH 4.0) to remove residual bound ligand, prior to addition of radioligand.
(1 mM), forskolin (10 μM), insulin (100 ng/mL), IGF-1 ([…]) or dexamethasone (100 nM).

| Compound | Downregulation of CPTHR binding (10 μM) | Downregulation of CPTHR binding (100 nM) |
| --- | --- | --- |
| C=C[C@@]1(C)CC(=O)[C@]2(O)[C@@]3(C)[C@@H](O)CCC(C)(C)[C@@H]3[C@H](O)[C@H](OC(C)=O)[C@@]2(C)O1 [forskolin] | No downregulation | – |
| C[C@@H]1C[C@H]2[C@@H]3CCC4=CC(=O)C=C[C@]4(C)[C@@]3(F)[C@@H](O)C[C@]2(C)[C@@]1(O)C(=O)CO [dexamethasone] | – | No downregulation |
